The source of these data is publication PMC5344305.

This assay deals with T1, palmitoyl-protein thioesterase-1 (PPT1) (human (endogenous in HEK-293)) (UniProt P50897).
T1 sequence: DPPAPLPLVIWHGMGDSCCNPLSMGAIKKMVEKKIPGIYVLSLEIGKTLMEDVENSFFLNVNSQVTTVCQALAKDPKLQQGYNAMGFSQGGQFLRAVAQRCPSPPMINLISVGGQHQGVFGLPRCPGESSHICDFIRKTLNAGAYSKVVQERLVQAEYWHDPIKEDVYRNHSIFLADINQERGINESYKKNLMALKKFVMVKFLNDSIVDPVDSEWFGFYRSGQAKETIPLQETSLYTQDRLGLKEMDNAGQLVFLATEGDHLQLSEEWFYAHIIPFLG
Briefly: co-IP; HEK-293 cells transfected with tagged V0a1 constructs, lysed in RIPA buffer, diluted in PBS with 0.5% NP-40; AP-2, AP-3 or PPT1 antibody overnight at 4 °C, TrueBlot IP beads, western blot; called pull-down by the paper. For orientation: Immunoblotting shows a protein as a band on a membrane.

Results are given in words; binding and its absence hold for the method and conditions named. In cells and extracts the contact can be indirect.

Consider FLAG-tagged V0a1 C25A mutant, for which the binding result is “no binding”.
